{"source": "paper PMC11116813", "binders": {"B1": {"name": "human INCENP (160-192), untagged version (Tyr-added), GST removed (domain or fragment, UniProt Q9NQS7 160-192)", "chain": "YHTQCQLVPVVEIGISERQNAEQHVTQLMSTEPL"}}, "target": "human HP1α chromoshadow domain (CSD), recombinant (human)", "assay": "NMR titration; 13C/15N-labelled HP1α CSD dimer with unlabelled INCENP 160–192 added until the free CSD signals disappeared; 1H-15N HSQC and filtered/edited NOESY, 298 K, 20 mM NaPO4 pH 7.0, 150 mM NaCl, 1 mM DTT, 5% D2O; both purified", "note": "These are yes or no findings as the source states them, for the method shown. Binding can be weak; no strength is given. Tags and fused reporters may be left off the sequences shown.", "data": [{"binder": "B1", "values": [{"measurement": "binding", "result": "binds"}]}]}
